Measurements from article PMC3006207, “Phosphorylation-Dependent Protein Interaction with Trypanosoma brucei 14-3-3 Proteins that Display Atypical Target Recognition” (PLoS ONE, 2010).
No constants are given. Whether binding was seen depends on the method and setting. Binding seen in cells or lysates may run through a third protein. Some binding calls cover weakened binding; strength is not graded here. Sequences can lack the tags named with a protein.

Target: T1, GST-14-3-3τ (human 14-3-3τ fused to glutathione S-transferase) (human) (UniProt P27348)
T1 sequence: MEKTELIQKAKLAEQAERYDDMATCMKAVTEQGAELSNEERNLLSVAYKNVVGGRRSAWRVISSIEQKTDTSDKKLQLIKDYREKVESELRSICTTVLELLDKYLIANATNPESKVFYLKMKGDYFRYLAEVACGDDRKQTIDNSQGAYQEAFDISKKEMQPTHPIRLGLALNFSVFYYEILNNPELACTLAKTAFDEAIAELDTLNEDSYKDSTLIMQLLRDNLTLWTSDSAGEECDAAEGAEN
Assay: pull-down; GST-14-3-3 proteins bound to glutathione beads; HeLa cell lysates in NP-40 lysis buffer (150 mM NaCl, 10 mM HEPES pH 7.5, 0.2% NP-40, 50 mM NaF, 1 mM Na3VO4); Western blot with anti-human c-Raf-1; only the target purified

binding: binds
Substance: human c-Raf 1 (from UniProt P04049 1-648)
